In PubChem BioAssay AID1508600 (Functional Genomics Laboratory (NCATS/FGL), 2020) one finds z-score data, which are given here for 107 sequences.

Screen size: about 53,000 sequences; about 3,700 (7%) were called active.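 Rule for the calls: active = gene knockdowns whose robust z-score for IL-1 alpha signal is at least 2 or at most -2, so actives lie on both sides; inactive = the rest.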 The list shows a part of the results.

A short description of the experiment: Components of the Cytosolic LPS Sensing Pathway: Gene Identification via Genome-wide siRNA Screen.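 Note: robust z of the log signal after scaling to non-targeting control siRNA wells of the plate.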 The note with it: RAW264.7 macrophages, IL-1a HTRF, actives lie on both sides, screened at 100 nM (by protocol), cells primed 5 h with Pam3CSK4 first. In short, it runs like this: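 Supernatant IL-1a by HTRF from RAW264.7 cells primed with Pam3CSK4 (5 hours) and transfected with LipidA (24 hour) after 48h siRNA knockdown at 100 nM; cell viability checked with CellTiter-Glo.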
For orientation: Time-resolved FRET reads energy transfer from a long-lived donor to a nearby acceptor.
Take GGUUUGUGCGGACUUGAUCTT against Rps20: the z-score is inactive: -0.143.
Regarding GGCUAUGUGAAUGAAGGGATT against Fbxl14, the z-score is inactive: 0.574.
In the case of CCGACUCCCAUCUUGUGAATT against Acsf2 it was inactive: -0.588; in that of CCUUAUUCCACCCAUUUUCTT against Gprc5a, inactive: -0.101.
Turning to GGCUAGUGUCAGAAAACCCTT against Tfrc, the z-score was inactive: -0.675.
As for GGAAGAGUCAACAUAAUAGTT against Galk2, the figure is inactive: -1.97; as for GCUCUGUUCACCUACCCGATT against Anapc16, inactive: 0.264.
As for GGGAUCGUAGAAGAUUAUATT against Pbdc1, the figure is inactive: -0.504.
Take CCUUCUCUAGCUAUGGCUATT against Gabrg3: the z-score was inactive: -0.198.
For the sequence GGGUUUUGACUUUCGUUUUTT against Etnk2, the z-score is inactive: 0.65.
As for UCACAGAAGGCUGUAUCCUTT against Olfr231, the figure is inactive: -0.942; as for GCUCAGAUAAUGGCCUACATT against Smarca4, active: 2.28.
GAGUGUUUCAGAUUCUUCATT against Klra8: the z-score is inactive: 0.329.
As for CGACUACCAACAGUUCAUATT against P2rx6, the figure is inactive: 1.14; as for GGACUUCUCCAUCCUGCUUTT against Alg1, inactive: -0.542.
As for GCGGUCACGUGUGAUGGAUTT against Zfp653, the figure is active: 3.98; as for GGAAGAAGAAAAGAUUCUGTT against Ddx41, inactive: -0.0781.
As for CCACAGCCAAAUGCACAAGTT against Platr26, the figure is inactive: 0.31; as for GGUUUAGGGUCAAGAUAUUTT against Ttf2, inactive: -1.39.
In the case of GGAAAAAAGUCAAGAAAGUTT against Fstl5, the z-score was inactive: -0.478.
As for GGAAAGAGACAGAAGAAGCTT against Lrrc23, the figure is inactive: -0.396; as for GCGGGCUGUCGUUAUGAUGTT against Qrfpr, inactive: 0.0894.
Consider GUACAACUAGACAUUAUGCTT against H2bu1-ps, for which the z-score is inactive: -1.21.
As for GGUUUGUAUCUUAAAUGCCTT against Tdpoz4, the figure is active: 2.88.
As for GGAAGAGAGGACCAUGAAGTT against Usp18, the figure is inactive: -1.14; as for GGCAUACCUGGAGAAGUGUTT against Prr5l, active: -2.31; as for GGAUGCAUAUGAAUUUGCUTT against Brdt, inactive: 0.969.
As for GGGUGAAAAUGGCAUUGUUTT against Col1a2, the figure is inactive: 0.56; as for GGUCUAGUAGGAUUUCUAUTT against Nid1, inactive: 0.318.
CGCGGAGGUCUCUCUUAUUTT against Prss39: the z-score is active: 2.22.
In the case of GCCCAUGUGGACUUCUAUGTT against Spr it was inactive: -0.521.
Consider GGUAGGAUGAGUUGAAGAGTT against AF366264, for which the z-score is inactive: 0.0631.
In the case of GGUCAGUCUACUUUUCCACTT against Tas2r108 it was inactive: -0.587; in that of GGGAGUGCUUUAGAAAAAATT against Acnat2, inactive: -0.0203; in that of GCAAGAAACAGCAUUGUCCTT against Plch2, inactive: -1.04.
In the case of GCCAAGACCUAUGAGUAUATT against Naaladl1 it was inactive: 1.33; in that of GGUCCUGUCUAAAGCUCAATT against Efna5, inactive: -0.799.
In the case of GCAGAUUGCUCAGAUUACCTT against Brip1 it was inactive: 0.407.
For the sequence CCUGUUGGCCAUUUCCUAGTT against Zdhhc21, the z-score is inactive: 0.404.
As for GGUUCAGACAACUCAGUGGTT against Pbx1, the figure is inactive: 0.813; as for GGGAUGGGACCAUCAAUCUTT against Cib1, inactive: -1.13.
In the case of CCUGGCAGAGCAUUAUCUATT against Tmem201 it was inactive: 0.558; in that of GGUGUCAGUCUCUAAACGATT against Hdgfl2, inactive: -0.0249.
GGCCUAUAGACCUAAUUGUTT against Vmn1r70: the z-score was inactive: -0.272.
In the case of GGCCCUAUUAGAGAUAAAATT against Robo3 it was inactive: -1.2; in that of GGAAACCAAACUGCUAUCUTT against Olfr1324, inactive: -0.321; in that of GCCCGAAUUUGAUAAACAGTT against Gxylt2, inactive: 0.184.
Consider GGAGCUAGUUCUAAGCCCUTT against Nrm, for which the z-score is inactive: 0.908.
As for GGCUCUUUCGAUUUCGGCATT against Unc50, the figure is inactive: -0.0616.
As for GCAAAUUAACAGAGUGUCCTT against Dnase1l2, the figure is inactive: -1.24; as for GGAAUGAACCAUAUGUAGCTT against Kcnq3, inactive: 0.14.
In the case of CGAAGGCUUCCCUUUUAUCTT against Tmem150b it was active: 2.67.
GGGUCUUUCACUACGACAGTT against Vnn1: the z-score was inactive: 0.207.
In the case of GGAUGAACACUGUUACAAATT against Tusc3 it was inactive: 0.352.
As for GCCUGACAUCAGUACCUUUTT against Pram1, the figure is inactive: -0.196.
As for GGUCCGAUUUGAUCAGCGUTT against Smpd2, the figure is inactive: 0.358; as for GGACUUCAGCUCCAGGCUATT against Cdk5rap1, inactive: 0.71; as for CCAGCUACGACGUAACUGATT against Rpl3l, inactive: -1.12.
As for AACUAUGUCUGCUAUGUCATT against Cela2a, the z-score is inactive: 1.03.
As for GGGACUGGAUUGUUGUUGUTT against Slc40a1, the figure is inactive: -0.906; as for GUGUCUGCUACCAUCGAAATT against Antkmt, inactive: 1.23.
In the case of GGAUAUUUAUUGUAUCCCATT against Col8a1 it was inactive: -0.918; in that of GCACAAUAAAGCUUGUUGCTT against Trmt2a, active: -2.26; in that of GCUUCUAAUUGGAGAUUGCTT against Bex3, inactive: -1.39.
As for GGACUUCUUAACCGCCCUGTT against Sirt5, the figure is inactive: 0.355; as for GCAGCGAUGGGUGUUUAUGTT against Dleu7, inactive: 1.35; as for GGAGCAGAAACUUGUCAAATT against Pik3c2g, inactive: 0.716.
Consider GCAAUACCACCAAGAAAUATT against Zcchc8, for which the z-score is inactive: -0.221.
As for GGGCUAACCUAGGUGGACUTT against Eci1, the figure is inactive: 0.811.
In the case of CGUGAUGAGUGAAAAUGAUTT against Cd34 it was active: -2.12; in that of GGUUGUGGUCUUUGUUCUGTT against Olfr923, inactive: -1.11; in that of GGUGGUUUUGUUUCUUUUUTT against Tab3, inactive: 0.643.
As for GGUUUCGACUCUGAUGUCATT against Elp5, the figure is inactive: -1.53; as for GGAUCAAAUUAUGUCUUUGTT against Chuk, inactive: 0.261; as for GGAGGAGACAGAGAUCAUUTT against Ruvbl2, inactive: -1.31.
CGAGUAGAGGACUUCUACATT against Olfml2a: the z-score is inactive: 1.38.
As for GGAACAUGAACACCAUCUGTT against Klk10, the figure is inactive: -1.18; as for GGAGCUCAUCUUCACAGGCTT against Echdc2, inactive: -0.401.
As for GGCCGUGGAAUUUUAGACATT against Mtrf1, the figure is inactive: 0.386; as for GGAGUCAAGAUCAUCUUCCTT against Tbc1d10a, inactive: -1.18.
As for CCAAGAUCCAGUUCAGUUATT against Oaz3, the figure is inactive: 0.236; as for GCUUGGUAAAGAAAAACGATT against Xrcc5, inactive: -0.567.
On to CCUGAUGUUCUCCUGUCUATT against Xcr1, for which the z-score was inactive: -0.299.
In the case of GGGUCAAUUAUUUAUGGUUTT against Gpr146 it was inactive: 0.269; in that of GGUAGAGAUGUACAUUUGGTT against Chrdl2, inactive: -1.72.
Take GGAGGCAGUUCGAAGAAUUTT against Rab9: the z-score is inactive: 1.23.
Turning to GGAGAACUUAAAGCACAAUTT against Plxnb1, the z-score was inactive: 0.179.
In the case of “GGCUCUUUGGAGACCAUCATT against 4930432E11Rik” it was inactive: -1.7; in that of GGACAGACUGAUUAAGAAATT against Paqr8, inactive: -0.569; in that of CCAAAGACCUUGGUCAUAATT against Tle3, inactive: -1.19.
In the case of GGCUCAGUUUCGAAUUAAATT against Commd5 it was inactive: 0.85.
As for GCAAUUUGAGCAGUAUGUATT against Cpsf7, the figure is active: -2.85.
Regarding GCAAUGCUUACUUUUAUGGTT against Zmpste24, the z-score was inactive: 0.199.
Take GCACAAUGGAAGGUGUCCUTT against Tas2r114: the z-score was inactive: 0.597.
In the case of GGAAGGUCUUUGGGAACUGTT against Insl5 it was inactive: 0.05; in that of GGGACAAGUGUUCUACUAUTT against Msra, inactive: -1.73; in that of GCUACAGCGGAAACUUCCUTT against Vps25, inactive: -0.124.
As for GCACUCCACUUUUGUACACTT against Cdc42ep5, the figure is inactive: 0.924; as for GGACAUCACUUGGAGACGATT against Capn10, inactive: -0.282.
In the case of GGACUUCAUCAAAGUCUUATT against Cyp11a1 it was inactive: 0.109.
For the sequence GCUAUUUUGGGACGAGUCATT against Col13a1, the z-score was inactive: -0.7.
In the case of GGUUAAGAACUGUUCAGAUTT against Ifnar2 it was inactive: 0.337.
As for GGUGGAAUAUAUUGAGUAUTT against Fam199x, the figure is inactive: 0.251.
As for GGGCGACUUAUUUUUUGUUTT against Zfp111, the figure is inactive: 0.333; as for GGGCAUCCUUCAACUUCAGTT against Zfp608, inactive: 1.06; as for GCUUCAAGAACGAACUGUUTT against Bmp10, inactive: -0.108.
As for GGCUGUACAGUCAUGCAAGTT against Adamts5, the z-score was inactive: 0.000591.
